Laboratory results as given in the supplement of paper PMC10331698.
± gives the standard deviation of the averaged measurements. Most entries show no effect beyond the scatter of the controls.

Key:
Experiment in all cases: level (log10 ratio to DMSO vehicle control); higher = higher biomarker level / cell amount than vehicle control
[1] = compound: O=S(=O)(F)C(F)(F)C(F)(F)C(F)(F)C(F)(F)C(F)(F)C(F)(F)C(F)(F)C(F)(F)F [Perfluorooctanesulfonyl fluoride]; conditions: 2200 nM; in DMSO
Protocol: (§1)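 BioMAP Diversity Plus panel of 12 human primary cell co-culture systems (3C, 4H, LPS, SAg, BT, BF4T, BE3C, CASM3C, HDF3CGF, KF3CT, MyoF, Mphg). Compounds were added 1 h before stimulation and left for 24 h (MyoF 48 h; BT 72 h for soluble read-outs or 6 d for IgG). Biomarkers were read by ELISA, cytotoxicity by SRB, PBMC viability and proliferation by Alamar Blue. Each well value was divided by the mean of 8 DMSO control wells on the same plate and log10 transformed; duplicate blinded samples were tested at 4 concentrations.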

[2] = compound: O=P(O)(O)CCC(F)(F)C(F)(F)C(F)(F)C(F)(F)C(F)(F)C(F)(F)F [2-(Perfluorohexyl)ethylphosphonic acid]; conditions: 2200 nM; in DMSO
Protocol: as §1

[3] = compound: O=S(=O)(O)C(F)(F)C(F)(F)C(F)(F)C(F)(F)C(F)(F)C(F)(F)C(F)(F)C(F)(F)F [Potassium perfluorooctanesulfonate]; conditions: 2200 nM; in DMSO
Protocol: as §1

[4] = compound: O=S(=O)(O)C(F)(F)C(F)(F)C(F)(F)C(F)(F)C(F)(F)C(F)(F)C(F)(F)C(F)(F)F [Perfluorooctanesulfonic acid]; conditions: 2200 nM; in DMSO
Protocol: as §1

[5] = compound: C=C(C)C(=O)OCC(F)(F)C(F)(F)C(F)(F)C(F)(F)C(F)(F)C(F)(F)C(F)(F)F; conditions: in DMSO
Protocol: as §1

[6] = compound: NS(=O)(=O)C(F)(F)C(F)(F)C(F)(F)C(F)(F)C(F)(F)C(F)(F)C(F)(F)C(F)(F)F [Perfluorooctanesulfonamide]; conditions: in DMSO
Protocol: as §1

[7] = compound: COC(=O)C(F)(F)C(F)(F)OC(F)(C(F)(F)F)C(F)(F)OC(F)=C(F)F [Methyl perfluoro(3-(1-ethenyloxypropan-2-yloxy)propanoate)]; conditions: in DMSO
Protocol: as §1

[8] = compound: C=CC(F)(F)C(F)(F)C(F)(F)C(F)(F)C(F)(F)C(F)(F)C(F)(F)C(F)(F)C=C [1,8-Divinylperfluorooctane]; conditions: in DMSO
Protocol: as §1

[9] = compound: NC(=O)C(F)(F)C(F)(F)C(F)(F)C(F)F; conditions: in DMSO
Protocol: as §1

[10] = compound: OCCCCC(F)(F)C(F)(F)C(F)(F)C(F)(F)F [4:4 Fluorotelomer alcohol]; conditions: 2200 nM; in DMSO
Protocol: as §1

[11] = compound: CO[Si](C)(CCC(F)(F)C(F)(F)C(F)(F)C(F)(F)C(F)(F)C(F)(F)F)OC [Dimethoxymethyl((perfluorohexyl)ethyl)silane]; conditions: in DMSO
Protocol: as §1

[12] = compound: FC(F)(F)C(F)(F)C(F)(F)CC1CO1 [1H,1H-Heptafluorobutyl epoxide]; conditions: 2200 nM; in DMSO
Protocol: as §1

[13] = compound: O=S(=O)(OCC(F)(F)F)C(F)(F)C(F)(F)C(F)(F)C(F)(F)F [2,2,2-Trifluoroethyl perfluorobutanesulfonate]; conditions: 2200 nM; in DMSO
Protocol: as §1

[14] = compound: C=CC(=O)OCC(F)(F)C(F)(F)C(F)(F)C(F)(F)C(F)(F)C(F)(F)C(F)(F)F [1H,1H-Perfluorooctyl acrylate]; conditions: 2200 nM; in DMSO
Protocol: as §1

Pentafluoropropionamide = compound: NC(=O)C(F)(F)C(F)(F)F [Pentafluoropropionamide]; conditions: 2200 nM; in DMSO
Protocol: as §1

[15] = compound: O=C(O)C(F)(F)C(F)(F)C(F)F [4H-Perfluorobutanoic acid]; conditions: in DMSO
Protocol: as §1

Heptafluorobutyl iodide = compound: FC(F)(F)C(F)(F)C(F)(F)CI [Heptafluorobutyl iodide]; conditions: 2200 nM; in DMSO
Protocol: as §1

[16] = compound: OCC(F)(F)C(F)(F)C(F)(F)C(F)(F)C(F)(F)C(F)F [1H,1H,7H-Dodecafluoro-1-heptanol]; conditions: 2200 nM; in DMSO
Protocol: as §1

Row | Test System | level (log10) [1] | level (log10) [2] | level (log10) [3] | level (log10) [4] | level (log10) ([5]; 740 nM) | level (log10) ([5]; 2200 nM) | level (log10) ([6]; 2200 nM) | level (log10) ([6]; 6700 nM) | level (log10) ([6]; 20000 nM) | level (log10) ([7]; 740 nM) | level (log10) ([7]; 2200 nM) | level (log10) ([8]; 740 nM) | level (log10) ([8]; 2200 nM) | level (log10) ([9]; 2200 nM) | level (log10) ([9]; 6700 nM) | level (log10) ([9]; 20000 nM) | level (log10) ([9]; 60000 nM) | level (log10) [10] | level (log10) ([11]; 740 nM) | level (log10) ([11]; 2200 nM) | level (log10) [12] | level (log10) [13] | level (log10) [14] | level (log10) (Pentafluoropropionamide) | level (log10) ([15]; 2200 nM) | level (log10) ([15]; 6700 nM) | level (log10) ([15]; 20000 nM) | level (log10) ([15]; 60000 nM) | level (log10) (Heptafluorobutyl iodide) | level (log10) [16]
1 | 4H:VEGFR2 | 0.006 ± 0.054 | 0.0265 ± 0.0078 | 0.0165 ± 0.0035 | -0.0295 ± 0.025 | 0.0575 ± 0.037 | -0.0005 ± 0.016 | 0.025 ± 0.018 | -0.0175 ± 0.035 | -0.006 ± 0.044 | 0.014 ± 0.057 | -0.0115 ± 0.023 | 0.0495 ± 0.077 | -0.0145 ± 0.061 | 0.017 ± 0.0028 | 0 ± 0.0042 | -0.006 ± 0.0099 | -0.001 ± 0.054 | 0.015 ± 0.088 | 0.0235 ± 0.044 | -0.0155 ± 0.021 | 0.01 ± 0.052 | 0.0145 ± 0.064 | -0.0015 ± 0.032 | 0.0585 ± 0.018 | 0.0365 ± 0.021 | -0.0255 ± 0.015 | -0.005 ± 0.042 | 0.012 ± 0.05 | 0.029 ± 0.024 | 0.03 ± 0.059
2 | MyoF:Collagen III | 0.0105 ± 0.032 | -0.005 | -0.0045 ± 0.0021 | -0.0025 ± 0.029 | 0.003 ± 0.0099 | -0.0015 ± 0.011 | -0.0085 ± 0.013 | -0.014 ± 0.0099 | -0.242 ± 0.023 | 0.0065 ± 0.00071 | -0.0025 ± 0.015 | -0.023 ± 0.0085 | -0.0145 ± 0.011 | -0.0095 ± 0.0021 | 0.003 | 0.0135 ± 0.00071 | -0.0065 ± 0.035 | 0.007 ± 0.011 | -0.011 ± 0.0028 | 0.005 ± 0.016 | -0.0185 ± 0.021 | 0.008 ± 0.027 | -0.0005 ± 0.013 | -0.0125 ± 0.00071 | 0.0135 ± 0.0064 | 0.022 ± 0.0099 | 0.0155 ± 0.0064 | 0.034 ± 0.014 | -0.0215 ± 0.022 | -0.0105 ± 0.0064
3 | BF4T:CD90 | 0.01 ± 0.0014 | -0.0035 ± 0.026 | 0.006 ± 0.024 | 0.003 ± 0.037 | -0.005 ± 0.0042 | -0.0135 ± 0.0021 | -0.001 ± 0.021 | -0.0275 ± 0.012 | -0.0585 ± 0.016 | 0.001 ± 0.0014 | -0.0005 ± 0.0035 | -0.009 ± 0.014 | -0.0135 ± 0.0035 | 0.0005 ± 0.0078 | -0.002 ± 0.0085 | -0.0125 ± 0.0092 | 0.001 ± 0.0028 | -0.001 ± 0.03 | -0.0135 ± 0.015 | -0.007 ± 0.0057 | -0.006 ± 0.025 | -0.009 ± 0.0028 | -0.001 ± 0.0028 | 0.004 ± 0.018 | 0.0025 ± 0.025 | 0.0045 ± 0.0035 | 0.0095 ± 0.011 | 0.01 ± 0.028 | 0.0015 ± 0.012 | 0.0035 ± 0.0092
4 | BE3C:SRB | -0.006 ± 0.0042 | 0.0055 ± 0.0064 | 0.0035 ± 0.019 | 0 ± 0.023 | 0.0035 ± 0.0021 | 0.0005 ± 0.0021 | 0.0005 ± 0.005 | -0.0145 ± 0.0021 | -0.0315 ± 0.00071 | -0.0005 ± 0.0078 | -0.012 | 0.0015 ± 0.00071 | -0.001 ± 0.0042 | -0.0005 ± 0.0064 | -0.0035 ± 0.0035 | 0.0005 ± 0.005 | -0.0055 ± 0.0021 | -0.001 ± 0.0042 | 0.001 ± 0.0014 | -0.0045 ± 0.0021 | -0.002 ± 0.0042 | 0.0025 ± 0.0021 | -0.003 ± 0.0028 | 0.0015 ± 0.0021 | -0.0005 ± 0.0035 | -0.003 ± 0.0014 | -0.004 ± 0.0099 | 0.0025 ± 0.0021 | 0.0135 ± 0.018 | -0.0005 ± 0.026
5 | 3C:CD87/uPAR | 0.0015 ± 0.0064 | 0.024 ± 0.0057 | 0.007 ± 0.0057 | 0.036 ± 0.035 | -0.022 ± 0.027 | -0.026 ± 0.027 | 0.015 ± 0.0014 | 0.006 ± 0.0099 | -0.0425 ± 0.016 | -0.022 ± 0.03 | 0.002 ± 0.016 | 0.004 ± 0.038 | -0.023 ± 0.072 | -0.027 ± 0.016 | -0.0235 ± 0.036 | -0.022 ± 0.03 | -0.023 ± 0.027 | -0.0005 ± 0.053 | -0.0175 ± 0.018 | -0.011 ± 0.02 | -0.018 ± 0.054 | -0.0035 ± 0.013 | 0.003 ± 0.02 | -0.0345 ± 0.029 | 0.003 ± 0.017 | -0.0265 ± 0.0092 | -0.0065 ± 0.0092 | 0.0095 ± 0.0064 | -0.04 ± 0.02 | 0.003 ± 0.016
6 | 3C:CD62E/E-Selectin | 0.0205 ± 0.012 | 0.0035 ± 0.022 | 0.0005 ± 0.013 | 0.0105 ± 0.0035 | 0.004 ± 0.017 | -0.0165 ± 0.029 | 0.023 ± 0.0042 | -0.006 ± 0.02 | 0.043 ± 0.011 | -0.0035 ± 0.032 | -0.017 ± 0.023 | 0.0135 ± 0.00071 | -0.012 ± 0.0057 | -0.013 ± 0.02 | -0.0055 ± 0.022 | -0.027 ± 0.0014 | -0.016 ± 0.018 | -0.002 ± 0.042 | -0.0105 ± 0.029 | -0.0065 ± 0.023 | -0.025 ± 0.025 | -0.0175 ± 0.0064 | 0.0115 ± 0.029 | 0.0055 ± 0.013 | 0.0275 ± 0.005 | -0.024 | -0.0235 ± 0.0092 | 0.017 ± 0.03 | -0.01 ± 0.0057 | 0.005 ± 0.011
7 | BE3C:CXCL8/IL-8 | 0.0355 ± 0.023 | -0.028 ± 0.083 | 0.0325 ± 0.12 | 0.0145 ± 0.063 | 0.035 ± 0.048 | 0.012 ± 0.023 | -0.019 ± 0.044 | -0.123 ± 0.0099 | -0.192 ± 0.013 | 0.0165 ± 0.11 | 0.033 ± 0.024 | 0.0255 ± 0.071 | 0.0045 ± 0.047 | 0.055 ± 0.072 | 0.025 ± 0.035 | 0.0405 ± 0.0078 | 0.0565 ± 0.04 | 0.0105 ± 0.071 | 0.0445 ± 0.073 | 0.021 ± 0.017 | 0.0285 ± 0.044 | 0.0195 ± 0.023 | 0.054 ± 0.058 | 0.0195 ± 0.06 | -0.0065 ± 0.028 | 0.015 ± 0.099 | 0.0165 ± 0.044 | 0.0695 ± 0.071 | 0.013 ± 0.018 | 0.0265 ± 0.087
8 | LPS:CCL2/MCP-1 | 0.0035 ± 0.016 | 0.0195 ± 0.019 | 0.0125 ± 0.025 | 0.006 ± 0.03 | -0.0035 ± 0.035 | 0.0005 ± 0.019 | 0.021 ± 0.03 | -0.0035 ± 0.013 | 0.0165 ± 0.0021 | -0.008 ± 0.04 | 0.0035 ± 0.0078 | 0.014 ± 0.011 | 0.0025 ± 0.011 | 0.027 ± 0.071 | 0.009 ± 0.045 | 0.005 ± 0.042 | 0.03 ± 0.013 | -0.0095 ± 0.016 | 0.003 ± 0.014 | -0.018 ± 0.0085 | -0.012 ± 0.037 | -0.0345 ± 0.0035 | 0.0085 ± 0.037 | -0.012 ± 0.034 | 0.0115 ± 0.023 | -0.0195 ± 0.0021 | -0.007 ± 0.0042 | 0.017 ± 0.054 | 0.022 ± 0.025 | 0.004 ± 0.023
